{"source": "PubChem BioAssay AID1224830 (NIAID, 2016)", "screen": "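Regulators of TLR4 signalling towards TNF-alpha in macrophage-like cells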 (primary screen)", "cells": "human THP-1 monocytic leukaemia cells, TNF dual-luciferase reporter clone, PMA-differentiated to macrophage-like cells", "knock-down reagent": "siRNA pool against human genes, 50 nM", "duration": "LPS for 4 h, given about 3 days after siRNA transfection", "treatment": "bacterial LPS (TLR4 ligand), 10 ng/ml", "measurement": "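TNF firefly reporter luminescence divided by renilla, normalised to the plate median, then turned into a robust z-score for each replicate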", "direction": "TNF reporter robust z-score: higher = stronger TNF reporter response to LPS", "call rule": "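a well is active when its z-score exceeds 2.8 or falls below -1.5; control wells carry no call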", "note": "The whole screen tested about 18,000 reagents; below is a random part of them. About 2,900 of all reagents (16%) were called active. 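Calls are made per well; low scores hint the gene aids the LPS response, high scores that it dampens it.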 Repeated entries: four replicate wells of each siRNA pool."}
{"gene knocked down":"ZNF277 (zinc finger protein 277)","TNF reporter robust z-score":-0.78,"activity call":"inactive"}
{"gene knocked down":"ZNF277 (zinc finger protein 277)","TNF reporter robust z-score":0.02,"activity call":"inactive"}
{"gene knocked down":"ZNF277 (zinc finger protein 277)","TNF reporter robust z-score":0.8,"activity call":"inactive"}
{"gene knocked down":"ZNF277 (zinc finger protein 277)","TNF reporter robust z-score":-0.27,"activity call":"inactive"}
{"gene knocked down":"TMEM38B (transmembrane protein 38B)","TNF reporter robust z-score":0.08,"activity call":"inactive"}
{"gene knocked down":"TMEM38B (transmembrane protein 38B)","TNF reporter robust z-score":-0.02,"activity call":"inactive"}
{"gene knocked down":"TMEM38B (transmembrane protein 38B)","TNF reporter robust z-score":-1.21,"activity call":"inactive"}
{"gene knocked down":"TMEM38B (transmembrane protein 38B)","TNF reporter robust z-score":-1.02,"activity call":"inactive"}
{"gene knocked down":"IFNG (interferon gamma)","TNF reporter robust z-score":1.43,"activity call":"inactive"}
{"gene knocked down":"IFNG (interferon gamma)","TNF reporter robust z-score":0.63,"activity call":"inactive"}
{"gene knocked down":"IFNG (interferon gamma)","TNF reporter robust z-score":1.09,"activity call":"inactive"}
{"gene knocked down":"IFNG (interferon gamma)","TNF reporter robust z-score":2.44,"activity call":"inactive"}
{"gene knocked down":"BSCL2 (BSCL2 lipid droplet biogenesis associated, seipin)","TNF reporter robust z-score":0.03,"activity call":"inactive"}
{"gene knocked down":"BSCL2 (BSCL2 lipid droplet biogenesis associated, seipin)","TNF reporter robust z-score":-0.16,"activity call":"inactive"}
{"gene knocked down":"BSCL2 (BSCL2 lipid droplet biogenesis associated, seipin)","TNF reporter robust z-score":-1.03,"activity call":"inactive"}
{"gene knocked down":"BSCL2 (BSCL2 lipid droplet biogenesis associated, seipin)","TNF reporter robust z-score":-0.89,"activity call":"inactive"}
{"gene knocked down":"NTRK2 (neurotrophic receptor tyrosine kinase 2)","TNF reporter robust z-score":0.89,"activity call":"inactive"}
{"gene knocked down":"NTRK2 (neurotrophic receptor tyrosine kinase 2)","TNF reporter robust z-score":0.21,"activity call":"inactive"}
{"gene knocked down":"NTRK2 (neurotrophic receptor tyrosine kinase 2)","TNF reporter robust z-score":0.77,"activity call":"inactive"}
{"gene knocked down":"NTRK2 (neurotrophic receptor tyrosine kinase 2)","TNF reporter robust z-score":-1.1,"activity call":"inactive"}
{"gene knocked down":"CAMTA2 (calmodulin binding transcription activator 2)","TNF reporter robust z-score":-0.26,"activity call":"inactive"}
{"gene knocked down":"CAMTA2 (calmodulin binding transcription activator 2)","TNF reporter robust z-score":-0.32,"activity call":"inactive"}
{"gene knocked down":"CAMTA2 (calmodulin binding transcription activator 2)","TNF reporter robust z-score":-0.01,"activity call":"inactive"}
{"gene knocked down":"CAMTA2 (calmodulin binding transcription activator 2)","TNF reporter robust z-score":0.31,"activity call":"inactive"}
{"gene knocked down":"GOLGA8F (golgin A8 family member F)","TNF reporter robust z-score":-0.15,"activity call":"inactive"}
{"gene knocked down":"GOLGA8F (golgin A8 family member F)","TNF reporter robust z-score":1.34,"activity call":"inactive"}
{"gene knocked down":"GOLGA8F (golgin A8 family member F)","TNF reporter robust z-score":-0.3,"activity call":"inactive"}
{"gene knocked down":"GOLGA8F (golgin A8 family member F)","TNF reporter robust z-score":0.63,"activity call":"inactive"}
{"gene knocked down":"BMP8A (bone morphogenetic protein 8a)","TNF reporter robust z-score":-0.18,"activity call":"inactive"}
{"gene knocked down":"BMP8A (bone morphogenetic protein 8a)","TNF reporter robust z-score":0.46,"activity call":"inactive"}
{"gene knocked down":"BMP8A (bone morphogenetic protein 8a)","TNF reporter robust z-score":-0.11,"activity call":"inactive"}
{"gene knocked down":"BMP8A (bone morphogenetic protein 8a)","TNF reporter robust z-score":-0.46,"activity call":"inactive"}
